Out of some 340,000 compounds screened, about 170 (0.05%) were called active. This list was built around the results that the source calls inconclusive (neither active nor inactive); the mix of calls is not that of the screen. Calls follow the shape of the dose curve; as a rule, active = well fitted inhibition curve with a large enough effect in the signal ratio, with a control signal flat (not every such curve was filed as active); inconclusive = small, poorly fitted or top-dose-only effect, or effect the other way, or a change in a side signal; inactive = flat fitted curve, though single readings scatter; the % refers to the signal ratio. Potencies beside an inconclusive call are fits to weak or partial responses and may not hold up.
Assay: qHTS Assay to Find Inhibitors of Chronic Active B-Cell Receptor Signaling;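 as to activity change, negative = inhibition: plate controls were basal doxycycline-induced cells for no effect and cells given 10 µM MG132 for full effect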
Conditions: ABC-DLBCL IkBa-CBG/CBR reporter, luminescence ratio (green luciferase fused to IkBa over red control in TMD8 lymphoma cells), 4 h; activity change, negative = inhibition: at 46.1 µM (top of the series) unless noted
Outline: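 TMD8 human ABC-DLBCL cells with doxycycline-inducible IκBα–green luciferase fusion and unfused red luciferase, in 0.5% FBS medium; compounds up to 46 uM, 4 h at 37C. Green/red luminescence ratio, filter-overlap corrected, fitted to concentration-response curves.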
Potency is read from the fitted curve at half-maximal effect.

Compound | activity change, negative = inhibition | Potency
COc1ccccc1OCc1nc(C#N)c(N2CCC(C(N)=O)CC2)o1 | inconclusive: -26.4% | –
COC(=O)c1cnn(-c2ccccc2)c1/C=N/NC(=S)Nc1ccccc1 | inconclusive: 6.01% | –
CCCN(CC(=O)Nc1ccc(F)c(F)c1F)C(=O)c1cc([N+](=O)[O-])ccc1N1CCOCC1 | inactive | –
CCc1ccc(NC(=O)N(CCCN2CCOCC2)Cc2cccs2)cc1 | inconclusive: 0.903% | –
O=C(COC(=O)CCC1CCCCC1)Nc1ccc(OC(F)F)cc1 | inconclusive: -7.8% | –
Cc1cccc(NC(=S)NC(=O)c2ccc(Br)o2)c1C | inconclusive: 7.5% | –
COc1ccc(NC(=O)C2CCCN(C)C2)cc1OCC(C)C (stereo not given) | inconclusive: -1.35% | –
COc1cc(/C=C2/C(=O)ON=C2c2ccccc2)ccc1O | – | inconclusive: 9.2 µM [rising, partial curve, poor fit]
CCOc1ccc(C(C)NC(=O)CN2C(=O)NC3(CCCCC3)C2=O)cc1OCC (stereo not given) | inconclusive: 0.307% | –
COc1ccc(S(=O)(=O)N(C)c2ccc(C(=O)N3CCCCC3)cc2)cc1 | inactive | –
O=C(O)CCCNC(=O)c1ccc(NC(=O)Cc2ccc(Cl)cc2)cc1 | inactive | –
Cc1ccc(OCCC(=O)Nc2ccc(S(=O)(=O)Nc3cc(C)nc(C)n3)cc2)cc1 | inconclusive: -1.7% | –
COC(=O)c1ccccc1NC(=O)CN1CCCCCC1 | – | inconclusive: 28.2 µM [falling, single point]
Cc1cc(-c2c(C)[nH]n(-c3ccc(Cl)cc3)c2=O)n(-c2ccc(Cl)cc2)n1 | – | inconclusive: 14.1 µM [rising, partial curve, poor fit]
Cc1cccc(N2CCN(C(=O)C3CCN(S(=O)(=O)c4cccnc4)CC3)CC2)c1C | inconclusive: 11% | –
COCC(C)Nc1ncnc2c1cnn2-c1cccc(Cl)c1 (stereo not given) | inconclusive: 9.53% | –
Cc1ccc(C2=NN=C(NC(=O)C(F)(F)F)SC2)cc1 | inactive | –
CCOC(=O)CCc1c(C)c2ccc(OC3CCCCC3=O)cc2oc1=O (stereo not given) | inactive | –
COc1cc(/C=N/NC(=O)C2=NNC(=O)C2C)ccc1O (stereo not given) | – | inconclusive: 22.4 µM [falling, partial curve]
CCCC(=O)N1CCN(Cc2ccc3c(c2)OCO3)CC1 | inactive | –
COc1ccccc1OCCNC(=O)c1ccc2c(c1)OCCO2 | inconclusive: 0.307% | –
O=C(N/N=C1\CCCc2ccccc21)c1cccc([N+](=O)[O-])c1 | inconclusive: -28.8% | –
COc1ccc(Cl)cc1-c1nc(SCC(=O)N(C)C)n[nH]1 | – | inconclusive: 35.5 µM [falling, single point]
O=P(OC1CCCCC1)(OC1CCCCC1)C(O)c1ccc(Cl)cc1Cl (stereo not given) | inconclusive: 20.2% | –
CS(=O)(=O)N1CCN(c2ccccc2NC(=O)c2ccc([N+](=O)[O-])o2)CC1 | inactive | –

Structures above with an NH in an aromatic ring, in the order listed:
Compound | activity change, negative = inhibition | Potency
Cc1cc(-c2c(C)[nH]n(-c3ccc(Cl)cc3)c2=O)n(-c2ccc(Cl)cc2)n1 | – | inconclusive: 14.1 µM [rising, partial curve, poor fit]
COc1ccc(Cl)cc1-c1nc(SCC(=O)N(C)C)n[nH]1 | – | inconclusive: 35.5 µM [falling, single point]

Later entries

Compound | activity change, negative = inhibition | Potency
COc1ccc(C/C(C)=N\NC(=O)c2c[nH]c3ccccc23)cc1OC | – | inconclusive: 12.6 µM [falling, partial curve, poor fit]
NC(=O)c1ccc(N2CCN(c3ncc(C(F)(F)F)cc3Cl)CC2)cc1 | inactive | –
CCn1c(=O)cc(SCC(=O)NCc2ccc(C)o2)c2ccccc21 | – | inconclusive: 29.1 µM [falling, single point]
Cc1ccsc1/C=N/NC(=O)c1cccs1 | – | inconclusive: 29.1 µM [falling, single point]
COc1ccc(CC(=O)Nc2ccc(-c3nc4ccccc4s3)c(C)c2)cc1 | inconclusive: 3.67% | –
COc1ccc(C2CC(=O)Oc3c(C(CCN4CCCCC4)c4ccc(N(C)C)cc4)c(OC)cc(OC)c32)cc1 (stereo not given) | inconclusive: 4.04% | –
COc1ccc(NC(=O)CCCn2c(=O)c3sccc3n(Cc3ccc(C)cc3)c2=O)cc1 | inconclusive: -10.4% | –
NNC(=O)c1nnn(-c2nonc2N)c1CN1CCc2ccccc2C1 | inconclusive: 4.08% | –
CCC1(CC)Nc2ccccc2C(=O)N1c1ccc(OC)cc1 | – | inconclusive: 15.8 µM [falling, partial curve]
CC(Oc1ccc(-c2ccccc2)c(F)c1)c1ccn(S(=O)(=O)c2cccc3ccccc23)n1 (stereo not given) | – | inconclusive: 11.2 µM [rising, partial curve, poor fit]
CCc1cc(Cn2nc(-c3ccccc3)cc2C(=O)NCc2cccc(Br)c2)on1 | inactive | –
CCOc1ccc(-c2[nH]ncc2Oc2ccccc2OC)c(O)c1 | inactive | –
CCc1ccc(-c2cc(C(F)(F)F)n3nc(C(=O)Nc4cnn(Cc5ccc(C)cc5)c4)cc3n2)s1 | inactive | –
CCCCCC1CC1C(=O)N/N=C/c1ccc(N(C)C)cc1 (stereo not given) | – | inconclusive: 10 µM [falling, partial curve, poor fit]
C=CC[C@H](CC(=O)N(CCO)Cc1ccccc1)C(=O)N[C@@H](COC(=O)[C@H](CC=C)CC(=O)OC(C)(C)C)Cc1c[nH]c2ccccc12 | inconclusive: -2.87% | –
Cc1ccc(/C=C(\CCC(=O)O)c2nc3ccccc3s2)cc1[N+](=O)[O-] | inactive | –
Cc1nn2c(N3CCOCC3)cc(C(C)C)nc2c1-c1ccccc1 | inconclusive: 0.526% | –
COc1cc(C2Nc3ccc4ccccc4c3C3=C2C(=O)CC(C)(C)C3)ccc1OC(C)C(=O)O (stereo not given) | inconclusive: -1.64% | –
CSc1ccccc1-n1nnnc1SCC(=O)Nc1ccccc1C | – | inconclusive: 0.731 µM [falling, partial curve, poor fit]
Cc1nccn1CC(=O)N/N=C/c1ccccc1O | inconclusive: 9.75% | –
CC1=C(C(=O)OCc2ccccc2)C(c2cccnc2)c2c(n(C)c(=O)n(C)c2=O)N1 (stereo not given) | inconclusive: 4.02% | –
COc1cc(/C=C2\CC/C(=C\c3cc(OC)c(OC)c(OC)c3)C2=O)cc(OC)c1OC | inactive | –
Cc1ccsc1/C=C1/C(=O)NN(c2ccccc2)C1=O | inconclusive: -24.9% | –
COc1cc(-c2cc(-c3ccc(F)cc3)nc(N)c2C#N)ccc1O | inconclusive: -16.3% | –
O=C(Nc1cc(Sc2ccccn2)cc([N+](=O)[O-])c1)c1cccc(Cl)c1 | inconclusive: 20% | –

— PubChem BioAssay AID493014 (National Center for Advancing Translational Sciences (NCATS), 2011)
